In the supplement of paper PMC7666118:
Some of the results follow.

Sequences of proteins named here, by UniProt entry; tags and fusion partners are left off. A change or cut given only in a name is not applied to a line headed by its entry.
UniProt Q9BVW5: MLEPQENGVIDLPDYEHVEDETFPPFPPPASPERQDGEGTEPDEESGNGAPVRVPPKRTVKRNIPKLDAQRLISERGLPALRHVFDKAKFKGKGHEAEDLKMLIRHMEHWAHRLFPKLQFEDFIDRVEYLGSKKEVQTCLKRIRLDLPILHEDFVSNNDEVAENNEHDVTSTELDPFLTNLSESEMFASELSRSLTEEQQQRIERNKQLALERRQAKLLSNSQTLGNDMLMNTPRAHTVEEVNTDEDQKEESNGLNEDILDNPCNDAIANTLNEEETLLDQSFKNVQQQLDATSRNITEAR
UniProt Q02880: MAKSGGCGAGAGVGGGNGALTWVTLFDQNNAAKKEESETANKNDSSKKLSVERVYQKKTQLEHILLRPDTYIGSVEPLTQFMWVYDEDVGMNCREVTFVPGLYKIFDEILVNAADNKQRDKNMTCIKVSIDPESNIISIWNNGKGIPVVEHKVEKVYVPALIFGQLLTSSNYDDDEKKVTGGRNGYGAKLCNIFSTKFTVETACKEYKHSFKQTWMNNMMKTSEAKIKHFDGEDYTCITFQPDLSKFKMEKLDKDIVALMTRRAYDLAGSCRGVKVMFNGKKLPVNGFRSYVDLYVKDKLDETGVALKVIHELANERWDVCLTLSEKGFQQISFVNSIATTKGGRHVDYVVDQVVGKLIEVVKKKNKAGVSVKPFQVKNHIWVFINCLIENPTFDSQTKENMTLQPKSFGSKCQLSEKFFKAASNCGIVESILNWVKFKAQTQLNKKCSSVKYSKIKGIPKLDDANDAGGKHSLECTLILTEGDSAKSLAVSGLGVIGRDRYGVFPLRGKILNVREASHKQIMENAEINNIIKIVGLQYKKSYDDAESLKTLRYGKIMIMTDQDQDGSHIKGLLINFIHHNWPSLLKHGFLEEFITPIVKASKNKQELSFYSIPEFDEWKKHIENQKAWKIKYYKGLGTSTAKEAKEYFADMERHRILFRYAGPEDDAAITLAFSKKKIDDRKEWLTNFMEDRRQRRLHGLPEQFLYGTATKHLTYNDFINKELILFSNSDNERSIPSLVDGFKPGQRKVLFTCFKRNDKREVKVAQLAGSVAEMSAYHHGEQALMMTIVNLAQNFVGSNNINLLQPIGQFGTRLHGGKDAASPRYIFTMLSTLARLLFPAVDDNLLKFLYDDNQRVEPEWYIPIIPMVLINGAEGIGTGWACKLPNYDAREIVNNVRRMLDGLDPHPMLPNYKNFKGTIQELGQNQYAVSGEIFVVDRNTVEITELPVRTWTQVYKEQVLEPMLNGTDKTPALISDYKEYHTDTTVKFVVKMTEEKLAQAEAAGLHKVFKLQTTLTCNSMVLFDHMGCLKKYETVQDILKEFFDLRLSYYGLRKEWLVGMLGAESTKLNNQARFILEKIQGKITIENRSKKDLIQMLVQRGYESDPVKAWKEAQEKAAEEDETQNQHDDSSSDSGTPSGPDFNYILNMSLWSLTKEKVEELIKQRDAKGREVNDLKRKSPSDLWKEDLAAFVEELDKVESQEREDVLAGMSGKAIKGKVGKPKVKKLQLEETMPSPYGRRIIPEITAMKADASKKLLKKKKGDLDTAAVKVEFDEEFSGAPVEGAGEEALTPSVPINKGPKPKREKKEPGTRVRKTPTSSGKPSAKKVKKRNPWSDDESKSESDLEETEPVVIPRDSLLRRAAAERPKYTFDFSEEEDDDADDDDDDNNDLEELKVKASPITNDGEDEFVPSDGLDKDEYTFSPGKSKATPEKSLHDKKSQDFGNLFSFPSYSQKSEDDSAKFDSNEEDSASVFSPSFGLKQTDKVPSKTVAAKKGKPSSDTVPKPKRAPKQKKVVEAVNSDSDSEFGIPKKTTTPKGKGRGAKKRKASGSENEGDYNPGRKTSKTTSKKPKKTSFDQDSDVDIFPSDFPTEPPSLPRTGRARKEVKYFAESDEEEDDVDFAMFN
UniProt P29401: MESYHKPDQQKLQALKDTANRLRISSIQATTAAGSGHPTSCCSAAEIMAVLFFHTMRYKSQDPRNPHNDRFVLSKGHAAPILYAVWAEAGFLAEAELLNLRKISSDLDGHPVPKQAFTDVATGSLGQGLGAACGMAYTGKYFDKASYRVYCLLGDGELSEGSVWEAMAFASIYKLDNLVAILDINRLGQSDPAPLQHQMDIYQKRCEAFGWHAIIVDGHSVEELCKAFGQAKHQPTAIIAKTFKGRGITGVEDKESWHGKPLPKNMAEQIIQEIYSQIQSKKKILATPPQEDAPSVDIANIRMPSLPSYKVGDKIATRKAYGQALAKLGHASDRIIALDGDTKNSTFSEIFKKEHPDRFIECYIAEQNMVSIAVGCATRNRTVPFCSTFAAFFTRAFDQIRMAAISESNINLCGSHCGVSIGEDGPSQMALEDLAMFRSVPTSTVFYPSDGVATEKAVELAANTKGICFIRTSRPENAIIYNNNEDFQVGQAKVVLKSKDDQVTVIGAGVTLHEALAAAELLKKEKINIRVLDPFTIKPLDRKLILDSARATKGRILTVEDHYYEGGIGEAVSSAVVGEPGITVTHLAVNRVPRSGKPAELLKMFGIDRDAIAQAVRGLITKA
UniProt Q7Z403: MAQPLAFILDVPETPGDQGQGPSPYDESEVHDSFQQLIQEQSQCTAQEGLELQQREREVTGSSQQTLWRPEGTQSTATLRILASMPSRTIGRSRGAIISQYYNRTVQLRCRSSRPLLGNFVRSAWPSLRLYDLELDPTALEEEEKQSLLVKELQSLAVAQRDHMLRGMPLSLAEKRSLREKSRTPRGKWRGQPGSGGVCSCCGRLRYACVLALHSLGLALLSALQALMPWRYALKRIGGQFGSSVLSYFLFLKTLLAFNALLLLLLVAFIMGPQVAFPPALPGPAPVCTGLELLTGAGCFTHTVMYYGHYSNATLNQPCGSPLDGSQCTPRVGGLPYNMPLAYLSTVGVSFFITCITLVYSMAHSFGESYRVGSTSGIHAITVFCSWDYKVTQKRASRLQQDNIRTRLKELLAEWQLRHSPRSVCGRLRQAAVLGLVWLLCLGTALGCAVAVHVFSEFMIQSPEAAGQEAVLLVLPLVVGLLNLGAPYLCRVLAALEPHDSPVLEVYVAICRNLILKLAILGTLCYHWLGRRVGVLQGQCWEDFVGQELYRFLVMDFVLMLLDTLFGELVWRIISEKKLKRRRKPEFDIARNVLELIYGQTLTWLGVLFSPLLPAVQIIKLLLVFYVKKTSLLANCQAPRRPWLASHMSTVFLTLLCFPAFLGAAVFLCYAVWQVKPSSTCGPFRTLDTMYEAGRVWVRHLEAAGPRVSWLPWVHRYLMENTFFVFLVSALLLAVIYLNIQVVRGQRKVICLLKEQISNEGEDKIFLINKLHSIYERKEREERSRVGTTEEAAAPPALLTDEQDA
UniProt Q9Y584: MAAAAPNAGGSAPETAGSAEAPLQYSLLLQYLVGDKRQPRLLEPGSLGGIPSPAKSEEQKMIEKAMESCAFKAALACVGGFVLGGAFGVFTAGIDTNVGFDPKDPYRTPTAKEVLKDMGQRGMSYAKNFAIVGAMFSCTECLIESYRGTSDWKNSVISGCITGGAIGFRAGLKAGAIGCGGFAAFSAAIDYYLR
UniProt Q9BV81: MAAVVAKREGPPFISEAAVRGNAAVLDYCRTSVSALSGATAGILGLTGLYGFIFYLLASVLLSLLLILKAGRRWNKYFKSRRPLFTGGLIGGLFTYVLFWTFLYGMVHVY
UniProt O15164: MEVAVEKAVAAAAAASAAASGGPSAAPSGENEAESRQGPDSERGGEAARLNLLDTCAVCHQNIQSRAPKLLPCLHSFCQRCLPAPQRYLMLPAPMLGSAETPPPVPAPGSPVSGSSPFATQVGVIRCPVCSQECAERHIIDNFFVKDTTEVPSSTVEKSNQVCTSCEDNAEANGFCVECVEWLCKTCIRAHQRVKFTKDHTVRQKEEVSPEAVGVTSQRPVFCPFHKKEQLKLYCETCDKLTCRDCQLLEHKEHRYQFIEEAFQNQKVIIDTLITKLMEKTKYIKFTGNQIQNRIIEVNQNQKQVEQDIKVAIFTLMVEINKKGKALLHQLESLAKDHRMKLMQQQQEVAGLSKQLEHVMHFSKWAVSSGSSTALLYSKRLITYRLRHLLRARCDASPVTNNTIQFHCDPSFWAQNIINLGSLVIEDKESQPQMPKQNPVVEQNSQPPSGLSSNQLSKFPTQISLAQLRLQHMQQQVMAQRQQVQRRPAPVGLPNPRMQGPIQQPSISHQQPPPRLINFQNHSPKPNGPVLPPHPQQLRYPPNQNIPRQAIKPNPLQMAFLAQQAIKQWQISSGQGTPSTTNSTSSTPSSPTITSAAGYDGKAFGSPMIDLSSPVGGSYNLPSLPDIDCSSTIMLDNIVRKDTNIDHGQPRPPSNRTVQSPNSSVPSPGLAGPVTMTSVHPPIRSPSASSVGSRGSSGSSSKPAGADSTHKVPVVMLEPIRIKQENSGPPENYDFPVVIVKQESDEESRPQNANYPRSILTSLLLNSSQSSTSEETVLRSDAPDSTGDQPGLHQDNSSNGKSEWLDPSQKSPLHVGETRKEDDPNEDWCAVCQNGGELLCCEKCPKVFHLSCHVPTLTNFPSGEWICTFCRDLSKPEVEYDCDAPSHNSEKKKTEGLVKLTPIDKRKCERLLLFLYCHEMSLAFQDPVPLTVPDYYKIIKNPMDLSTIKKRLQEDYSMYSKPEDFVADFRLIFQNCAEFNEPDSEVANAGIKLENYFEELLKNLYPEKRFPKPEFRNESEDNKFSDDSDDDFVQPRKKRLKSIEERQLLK
UniProt Q96DX7: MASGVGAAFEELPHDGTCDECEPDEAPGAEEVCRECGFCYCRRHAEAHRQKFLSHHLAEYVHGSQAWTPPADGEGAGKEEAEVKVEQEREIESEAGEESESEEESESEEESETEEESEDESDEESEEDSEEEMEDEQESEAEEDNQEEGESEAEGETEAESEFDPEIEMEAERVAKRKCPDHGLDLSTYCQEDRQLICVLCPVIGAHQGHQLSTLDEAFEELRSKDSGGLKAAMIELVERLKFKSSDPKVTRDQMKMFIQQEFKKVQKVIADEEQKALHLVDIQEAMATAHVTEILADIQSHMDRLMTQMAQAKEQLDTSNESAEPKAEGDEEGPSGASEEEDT
UniProt Q9H0R3: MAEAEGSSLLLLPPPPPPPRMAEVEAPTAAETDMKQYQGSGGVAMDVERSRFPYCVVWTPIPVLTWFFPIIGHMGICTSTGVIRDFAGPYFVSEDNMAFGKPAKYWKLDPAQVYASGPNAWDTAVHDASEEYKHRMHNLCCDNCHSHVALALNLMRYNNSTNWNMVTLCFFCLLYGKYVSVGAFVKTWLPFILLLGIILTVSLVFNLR
UniProt Q8NHX9: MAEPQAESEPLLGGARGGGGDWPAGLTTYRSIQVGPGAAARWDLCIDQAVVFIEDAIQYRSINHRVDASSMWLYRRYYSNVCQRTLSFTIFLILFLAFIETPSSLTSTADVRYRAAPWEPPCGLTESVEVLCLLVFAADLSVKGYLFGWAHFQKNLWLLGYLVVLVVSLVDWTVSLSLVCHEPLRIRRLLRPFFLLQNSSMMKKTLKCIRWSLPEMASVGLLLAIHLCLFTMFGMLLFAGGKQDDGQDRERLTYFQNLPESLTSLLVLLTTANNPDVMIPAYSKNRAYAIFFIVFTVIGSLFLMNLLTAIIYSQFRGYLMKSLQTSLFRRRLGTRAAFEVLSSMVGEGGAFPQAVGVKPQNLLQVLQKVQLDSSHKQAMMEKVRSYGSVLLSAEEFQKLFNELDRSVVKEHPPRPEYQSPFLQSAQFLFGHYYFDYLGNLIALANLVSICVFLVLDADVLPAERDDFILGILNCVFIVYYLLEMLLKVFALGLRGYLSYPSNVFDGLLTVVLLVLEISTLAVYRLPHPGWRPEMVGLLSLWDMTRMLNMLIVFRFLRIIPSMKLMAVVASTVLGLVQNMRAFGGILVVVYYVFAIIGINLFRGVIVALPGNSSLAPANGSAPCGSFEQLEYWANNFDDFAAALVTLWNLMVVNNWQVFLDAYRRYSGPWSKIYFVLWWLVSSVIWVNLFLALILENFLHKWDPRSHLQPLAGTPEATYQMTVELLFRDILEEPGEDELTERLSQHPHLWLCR
UniProt Q5JTV8: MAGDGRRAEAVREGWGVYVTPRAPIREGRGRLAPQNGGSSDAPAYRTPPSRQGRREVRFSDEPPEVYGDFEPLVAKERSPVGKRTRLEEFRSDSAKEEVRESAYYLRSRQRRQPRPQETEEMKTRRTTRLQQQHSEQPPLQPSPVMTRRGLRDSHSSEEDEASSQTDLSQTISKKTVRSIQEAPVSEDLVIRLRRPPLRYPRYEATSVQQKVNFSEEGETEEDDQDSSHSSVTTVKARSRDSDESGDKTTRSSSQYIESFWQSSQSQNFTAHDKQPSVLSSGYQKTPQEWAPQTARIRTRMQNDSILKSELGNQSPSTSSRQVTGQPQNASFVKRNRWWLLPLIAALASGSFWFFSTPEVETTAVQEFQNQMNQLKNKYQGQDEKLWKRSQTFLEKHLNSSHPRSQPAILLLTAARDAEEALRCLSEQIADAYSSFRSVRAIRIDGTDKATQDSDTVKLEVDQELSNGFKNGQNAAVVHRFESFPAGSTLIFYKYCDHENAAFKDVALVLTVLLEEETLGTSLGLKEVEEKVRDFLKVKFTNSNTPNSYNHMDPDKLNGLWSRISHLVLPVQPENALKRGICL

compound: COc1ccc(Cn2ccc3cc(C)c(C(=O)NO)cc32)cc1; assay: dose-dependent thermal stabilisation call (2D-TPP, DLPTP, 10% FDR) (binary (1 = stabilised)); higher = stabilised by the compound; settings: system: HL-60 intact cells; concentration range 0.04-10 µM
Experimental: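 2D thermal proteome profiling in intact HL-60 cells treated with BRD-3811 (0, 0.04, 0.29, 2, 10 uM) for 90 min at 37 C, then heated 3 min at one of 12 temperatures (42-63.9 C). Soluble protein was quantified by TMT10 MS. The value is the DLPTP call of the paper: dose-dependent thermal stabilisation over all temperatures at 10% FDR (F-test of a dose-response against a flat model); one experiment, one call per tested protein.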

Row | Target | dose-dependent thermal stabilisation call
1 | TIPIN (UniProt Q9BVW5) | inactive: 0
2 | TNKS1BP1 (UniProt Q9C0C2) | inactive: 0
3 | TRMT5 (UniProt Q32P41) | inactive: 0
4 | TRAPPC1 (UniProt Q9Y5R8) | inactive: 0
5 | TMEM181 (UniProt Q9P2C4) | inactive: 0
6 | TPR (UniProt P12270) | inactive: 0
7 | TOP2B (UniProt Q02880) | inactive: 0
8 | TRIO (UniProt O75962) | inactive: 0
9 | TRMT61A (UniProt Q96FX7) | inactive: 0
10 | TSN (UniProt Q15631) | inactive: 0
11 | TMEM97 (UniProt Q5BJF2) | inactive: 0
12 | TMEM19 (UniProt Q96HH6) | inactive: 0
13 | TMEM186 (UniProt Q96B77) | inactive: 0
14 | TNRC6B (UniProt Q9UPQ9) | inactive: 0
15 | TKT (UniProt P29401) | inactive: 0
16 | TPRG1L (UniProt Q5T0D9) | inactive: 0
17 | TSPO | inactive: 0
18 | TMC6 (UniProt Q7Z403) | inactive: 0

Row | Target | dose-dependent thermal stabilisation call
19 | TIMM22 (UniProt Q9Y584) | inactive: 0
20 | TMEM93 (UniProt Q9BV81) | inactive: 0
21 | TRIM24 (UniProt O15164) | inactive: 0
22 | TSPAN4 (UniProt O14817) | inactive: 0
23 | TIMM23 (UniProt O14925) | inactive: 0
24 | TOLLIP (UniProt Q9H0E2) | inactive: 0
25 | TRAPPC6B (UniProt Q86SZ2) | inactive: 0
26 | TMEM143 (UniProt Q96AN5) | inactive: 0
27 | TRIM44 (UniProt Q96DX7) | inactive: 0
28 | TMEM222 (UniProt Q9H0R3) | inactive: 0
29 | TRIM38 (UniProt O00635) | inactive: 0
30 | TRPM7 (UniProt Q96QT4) | inactive: 0
31 | TPCN2 (UniProt Q8NHX9) | inactive: 0
32 | TMEM173 (UniProt Q86WV6) | inactive: 0
33 | TOR1AIP1 (UniProt Q5JTV8) | inactive: 0
34 | TMEM87B (UniProt Q96K49) | inactive: 0
35 | THOP1 (UniProt P52888) | inactive: 0
36 | TLN2 (UniProt Q9Y4G6) | inactive: 0

Shown in markdown: entries from further up.

| Row | Target | dose-dependent thermal stabilisation call |
| --- | --- | --- |
| 24 | TOLLIP (UniProt Q9H0E2) | inactive: 0 |
| 25 | TRAPPC6B (UniProt Q86SZ2) | inactive: 0 |
